Measured values from publication doi:10.1101/219105.

Molecular target: T1, Asp1, untagged, as co-expressed with Asp3 and tagged Asp2 (Streptococcus gordonii) (UniProt Q9AET8)
T1 sequence: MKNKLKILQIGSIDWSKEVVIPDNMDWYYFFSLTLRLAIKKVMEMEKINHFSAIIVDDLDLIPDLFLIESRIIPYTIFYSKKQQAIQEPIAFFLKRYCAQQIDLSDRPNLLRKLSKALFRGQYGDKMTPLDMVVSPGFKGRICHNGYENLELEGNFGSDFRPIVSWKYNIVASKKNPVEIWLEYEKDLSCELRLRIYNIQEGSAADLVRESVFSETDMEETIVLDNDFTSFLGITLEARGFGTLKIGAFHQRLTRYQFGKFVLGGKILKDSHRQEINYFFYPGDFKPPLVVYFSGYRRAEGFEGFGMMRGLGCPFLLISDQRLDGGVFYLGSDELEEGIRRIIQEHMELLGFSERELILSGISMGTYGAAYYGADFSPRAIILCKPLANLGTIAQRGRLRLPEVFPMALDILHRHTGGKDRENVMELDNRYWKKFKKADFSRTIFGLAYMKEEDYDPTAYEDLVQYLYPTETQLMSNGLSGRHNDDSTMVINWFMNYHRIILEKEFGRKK
Test: SEC

Asp3 (accessory Sec protein 3) (Streptococcus gordonii)
binding: binds

No constants are given. Whether binding was seen depends on the method and setting. Binding calls can cover weak binding; strength is not graded here. Sequences can lack the tags named with a protein.
